From the supplement of paper PMC9233669
Variants at the background level are over-represented here.

Columns and labels:
biotinyl-Phe-oxazolone = assay: self-aminoacylation, catalytic enhancement (BFO) (fold over background); higher = more active; k-Seq, kA / k0A0; sequences stand for … in GGGAAUGGAUCCACAUCUACGAAUUC…UUCACUGCAGACUUGACGAAGCUG
In short: (§1)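 Mutagenized RNA pools (0.43 μM; 21-nt variable region) were treated with 2–1250 μM of each biotinyl-aminoacyl-oxazolone. Conditions were 50 μL HEPES/NaCl/KCl/MgCl2/CaCl2 buffer, 5% acetonitrile, pH 6.9–7.0, room temperature, 90 minutes. Catalytic enhancement, the median kA relative to the uncatalyzed rate, was derived from streptavidin capture, qPCR and Illumina sequencing.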

biotinyl-Met-oxazolone = assay: self-aminoacylation, catalytic enhancement (BMO) (fold over background); higher = more active; k-Seq, kA / k0A0; sequences stand for … in GGGAAUGGAUCCACAUCUACGAAUUC…UUCACUGCAGACUUGACGAAGCUG
In short: as §1

biotinyl-Ile-oxazolone = assay: self-aminoacylation, catalytic enhancement (BIO) (fold over background); higher = more active; k-Seq, kA / k0A0; sequences stand for … in GGGAAUGGAUCCACAUCUACGAAUUC…UUCACUGCAGACUUGACGAAGCUG
In short: as §1

biotinyl-Val-oxazolone = assay: self-aminoacylation, catalytic enhancement (BVO) (fold over background); higher = more active; k-Seq, kA / k0A0; sequences stand for … in GGGAAUGGAUCCACAUCUACGAAUUC…UUCACUGCAGACUUGACGAAGCUG
In short: as §1

biotinyl-Leu-oxazolone = assay: self-aminoacylation, catalytic enhancement (BLO) (fold over background); higher = more active; k-Seq, kA / k0A0; sequences stand for … in GGGAAUGGAUCCACAUCUACGAAUUC…UUCACUGCAGACUUGACGAAGCUG
In short: as §1

biotinyl-Trp-oxazolone = assay: self-aminoacylation, catalytic enhancement (BWO) (fold over background); higher = more active; k-Seq, kA / k0A0; sequences stand for … in GGGAAUGGAUCCACAUCUACGAAUUC…UUCACUGCAGACUUGACGAAGCUG
In short: as §1

Row | Sequence | self-aminoacylation (biotinyl-Phe-oxazolone) | self-aminoacylation (biotinyl-Met-oxazolone) | self-aminoacylation (biotinyl-Ile-oxazolone) | self-aminoacylation (biotinyl-Val-oxazolone) | self-aminoacylation (biotinyl-Leu-oxazolone) | self-aminoacylation (biotinyl-Trp-oxazolone)
1 | AUUACCCUGGUAGUCGAGUGA [Fam2.1 aminoacylation ribozyme variant] | 1.7 | 1.72 | 1.29 | 1.4 | 1.46 | 1.84
2 | CUCCUUCAAACUAUCGGUCUG [Fam1A.1 aminoacylation ribozyme variant] | 1.92 | 1.17 | 1.14 | 1.15 | 0.895 | 1.5
3 | AAGUUUGCUAAUAGUCACGAG [Fam3.1 aminoacylation ribozyme variant] | 1.54 | 1.33 | 1.26 | 1.22 | 0.881 | 1.34
4 | CCACACAUCAAGCAAUCGGUU [Fam1B.1 aminoacylation ribozyme variant] | 0.745 | 0.885 | 1.7 | 1.59 | 1.23 | 0.785
5 | AAGUUUGCUAAUGGUCGCAGG [Fam3.1 aminoacylation ribozyme variant] | 1.68 | 1.2 | 1.28 | 1.13 | 1.64 | 1.46
6 | CCACACUUCAGGCAAUCGGAC [Fam1B.1 aminoacylation ribozyme variant] | 0.822 | 0.999 | 1.4 | 1.54 | 1.45 | 1.45
7 | AGUCACCUAGGUCUUCGGGUG [Fam2.2 aminoacylation ribozyme variant] | 56.4 | 6.75 | 6.51 | 6.48 | 8.46 | 8.99
8 | CUACUUCUAACAAUCGGUCAG [Fam1A.1 aminoacylation ribozyme variant] | 0.851 | 0.664 | 0.78 | 0.707 | 0.732 | 0.626
9 | CCACACUUCAAGCGAUCGAUC [Fam1B.1 aminoacylation ribozyme variant] | 0.936 | 0.469 | 0.533 | 0.634 | 0.461 | 0.362
10 | ACUACCCUGGUCAUCGAGUCA [Fam2.1 aminoacylation ribozyme variant] | 0.856 | 1.01 | 0.883 | 0.82 | 0.802 | 0.697
11 | CCACACUUCAUGCAAUCCGUC [Fam1B.1 aminoacylation ribozyme variant] | 0.659 | 0.649 | 1.03 | 0.904 | 0.748 | 1.23
12 | CUACUUCAAUCAAUCGAUCUG [Fam1A.1 aminoacylation ribozyme variant] | 1.37 | 0.613 | 0.746 | 0.627 | 0.545 | 0.772
13 | AUUCACCUAGGUCAUCAGGUA [Fam2.2 aminoacylation ribozyme variant] | 0.962 | 0.849 | 1.08 | 1.05 | 0.818 | 0.938
14 | AUGUUUGCUAAUAUUCGCAAG [Fam3.1 aminoacylation ribozyme variant] | 1.15 | 1.38 | 1.47 | 1.21 | 1.16 | 1.6
15 | CUACUUGAAACAAUCGGUCUU [Fam1A.1 aminoacylation ribozyme variant] | 0.509 | 0.94 | 0.871 | 0.799 | 0.745 | 0.567
16 | AUUCACCUAGGUUAUCGUGUG [Fam2.2 aminoacylation ribozyme variant] | 2.6 | 1.07 | 0.775 | 0.981 | 1 | 0.804
17 | CUUCACCUAGGCCAUCGGGUG [Fam2.2 aminoacylation ribozyme variant] | 11.2 | 3.12 | 2.55 | 3.8 | 4.08 | 4.2
18 | CUACUUCAAACACUCGGUCCG [Fam1A.1 aminoacylation ribozyme variant] | 0.578 | 1.31 | 1.12 | 1.22 | 1.08 | 0.646
19 | CCACACUUCAAGCAAGCGGGC [Fam1B.1 aminoacylation ribozyme variant] | 6.38 | 2.41 | 1.61 | 2.29 | 1.59 | 2.67
20 | CCACACUUCAAGCCUUCGGUC [Fam1B.1 aminoacylation ribozyme variant] | 1.95 | 1.34 | 1.4 | 1.54 | 1.4 | 1.17
21 | AUUCACCAAGGUCAUCGGGUU [Fam2.2 aminoacylation ribozyme variant] | 17.2 | 2.43 | 2.42 | 2.59 | 2.21 | 4.16
22 | AAGUUUGCUAAUUGUAGCAAG [Fam3.1 aminoacylation ribozyme variant] | 0.987 | 0.979 | 0.854 | 1.03 | 0.95 | 1.02
23 | CCACCCUUUAAGCAAUCGGUC [Fam1B.1 aminoacylation ribozyme variant] | 1.34 | 0.892 | 1.16 | 1.21 | 0.983 | 0.888
24 | CCACACAUGAAGCAAUCGGUC [Fam1B.1 aminoacylation ribozyme variant] | 0.955 | 0.614 | 0.83 | 0.957 | 0.754 | 0.778
25 | CCACACGUCAAGCAAUCAGUC [Fam1B.1 aminoacylation ribozyme variant] | 0.738 | 0.665 | 0.647 | 0.88 | 0.713 | 0.482
26 | AUUCACCUAGGUCAUCGAAUG [Fam2.2 aminoacylation ribozyme variant] | 0.693 | 0.639 | 0.631 | 0.71 | 0.631 | 0.335

Row | Sequence | self-aminoacylation (biotinyl-Phe-oxazolone) | self-aminoacylation (biotinyl-Met-oxazolone) | self-aminoacylation (biotinyl-Ile-oxazolone) | self-aminoacylation (biotinyl-Val-oxazolone) | self-aminoacylation (biotinyl-Leu-oxazolone) | self-aminoacylation (biotinyl-Trp-oxazolone)
27 | CUACUUCAAACAAUUGCUCUG [Fam1A.1 aminoacylation ribozyme variant] | 0.695 | 0.582 | 0.746 | 0.681 | 0.613 | 0.814
28 | CUACUUCAAACAAUCGGGCUA [Fam1A.1 aminoacylation ribozyme variant] | 1.46 | 0.863 | 1.08 | 0.854 | 0.687 | 0.786
29 | AUUCCCCUGGUCAUCAAGUGA [Fam2.1 aminoacylation ribozyme variant] | 3.87 | 2.36 | 1.58 | 1.99 | 1.97 | 2.34
30 | CCAAACUUCAAGUAAUCGGUC [Fam1B.1 aminoacylation ribozyme variant] | 10.5 | 0.787 | 0.968 | 0.974 | 1.14 | 7.85
31 | CCACAUUUCAUGCAAUCGGUC [Fam1B.1 aminoacylation ribozyme variant] | 1.39 | 1.17 | 1.34 | 1.32 | 1.34 | 1.22
32 | AUUAACGUGGUCAUCGAGUGA [Fam2.1 aminoacylation ribozyme variant] | 18.6 | 4.88 | 2.95 | 2.75 | 4.72 | 6.07
33 | AUUACCCUUGUCAUCGAGAGA [Fam2.1 aminoacylation ribozyme variant] | 0.771 | 1.03 | 0.893 | 0.778 | 0.92 | 0.397
34 | CGACAAUUCAAGCAAUCGGUC [Fam1B.1 aminoacylation ribozyme variant] | 1.11 | 0.921 | 1.27 | 1.11 | 0.978 | 1.06
35 | CUACUUCAAGCAAUAGGUCUG [Fam1A.1 aminoacylation ribozyme variant] | 1.25 | 0.763 | 0.861 | 0.904 | 0.771 | 0.918
36 | CUUACCCUGGUCAUCGCGUGA [Fam2.1 aminoacylation ribozyme variant] | 148 | 18.7 | 7.79 | 10.9 | 18.9 | 18.5
37 | CCGCACUUUAAGCAAUCGGUC [Fam1B.1 aminoacylation ribozyme variant] | 1.17 | 0.894 | 1.07 | 1.05 | 1.05 | 1.25
38 | CCGCACUUCUAGCAAUCGGUC [Fam1B.1 aminoacylation ribozyme variant] | 0.997 | 0.83 | 1.06 | 1.22 | 0.831 | 0.775
39 | CCACACUUCAAGCAAUAAGUC [Fam1B.1 aminoacylation ribozyme variant] | 1.14 | 0.53 | 0.692 | 0.733 | 0.557 | 0.404
40 | AAGCUUGCUAAUAGUCGCUAG [Fam3.1 aminoacylation ribozyme variant] | 2.31 | 1.29 | 1.89 | 1.38 | 1.71 | 2
41 | CCACACUUCAAGCAAUUAGUC [Fam1B.1 aminoacylation ribozyme variant] | 1.1 | 0.388 | 0.647 | 0.642 | 0.556 | 0.633
42 | CCAAAUUUCAAGCAAUCGGUC [Fam1B.1 aminoacylation ribozyme variant] | 1.34 | 1.14 | 1.25 | 1.28 | 1.08 | 1.06
43 | AAGUUUGCUAUUAAUCGCAAG [Fam3.1 aminoacylation ribozyme variant] | 0.801 | 0.63 | 0.703 | 0.744 | 0.727 | 0.63
44 | CUACUUCAACCAAUCCGUCUG [Fam1A.1 aminoacylation ribozyme variant] | 0.984 | 0.813 | 0.941 | 1.1 | 0.926 | 1.08
45 | AUUACCCUGGUCAUCUAGUUA [Fam2.1 aminoacylation ribozyme variant] | 0.757 | 0.914 | 0.964 | 0.874 | 0.762 | 1.93
46 | AAGUUUGCUAAUAGGCGCAUG [Fam3.1 aminoacylation ribozyme variant] | 1.07 | 0.733 | 0.735 | 0.684 | 0.707 | 0.851
47 | AAGUUUGCGAAUAGACGCAAG [Fam3.1 aminoacylation ribozyme variant] | 1.08 | 0.658 | 0.528 | 0.559 | 0.597 | 0.874
48 | CCACACUUGAAGCAAGCGGUC [Fam1B.1 aminoacylation ribozyme variant] | 0.551 | 0.849 | 1 | 0.852 | 0.883 | 0.689
49 | CCACACUUAAAGCAAUCGCUC [Fam1B.1 aminoacylation ribozyme variant] | 0.744 | 1.02 | 1.31 | 1.1 | 1.38 | 0.677
50 | AUUCACGUAGGUUAUCGGGUG [Fam2.2 aminoacylation ribozyme variant] | 38.9 | 5.38 | 3.34 | 5.09 | 4.91 | 4.68
51 | CCACACUUCCAGCAAUCAGUC [Fam1B.1 aminoacylation ribozyme variant] | 0.899 | 0.634 | 0.791 | 0.871 | 0.669 | 0.456
